Reference: publication PMC9266818
These are yes or no findings as the source states them, for the method shown. Binding seen in cells or lysates may run through a third protein. Some results given as binding are weak or reduced against the parent protein; the word gives no strength.

Protein sequences, listed by entry. Tags and fused reporters are not part of them.
UniProt P06493: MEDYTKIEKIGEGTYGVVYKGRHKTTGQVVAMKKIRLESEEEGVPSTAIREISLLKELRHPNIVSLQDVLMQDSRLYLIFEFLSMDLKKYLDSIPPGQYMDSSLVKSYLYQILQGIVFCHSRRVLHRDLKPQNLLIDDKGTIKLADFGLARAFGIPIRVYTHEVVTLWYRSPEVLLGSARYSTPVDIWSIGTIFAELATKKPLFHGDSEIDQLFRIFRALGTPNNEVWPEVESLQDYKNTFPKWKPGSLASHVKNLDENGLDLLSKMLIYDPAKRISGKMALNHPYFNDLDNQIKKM

Molecular target: CDK1 (cyclin-dependent kinase 1), endogenous in UM1 cells (human (endogenous in UM1)) (UniProt P06493)
Assay: co-IP; UM1 cell lysate, endogenous proteins; IP with anti-∆Np63α or anti-CDK1, homologous IgG as controls; immunoblot

B1: ∆Np63α, endogenous in UM1 cells (protein, UniProt Q9H3D4-2 1-586)
chain: MLYLENNAQTQFSEPQYTNLGLLNSMDQQIQNGSSSTSPYNTDHAQNSVTAPSPYAQPSSTFDALSPSPAIPSNTDYPGPHSFDVSFQQSSTAKSATWTYSTELKKLYCQIAKTCPIQIKVMTPPPQGAVIRAMPVYKKAEHVTEVVKRCPNHELSREFNEGQIAPPSHLIRVEGNSHAQYVEDPITGRQSVLVPYEPPQVGTEFTTVLYNFMCNSSCVGGMNRRPILIIVTLETRDGQVLGRRCFEARICACPGRDRKADEDSIRKQQVSDSTKNGDGTKRPFRQNTHGIQMTSIKKRRSPDDELLYLPVRGRETYEMLLKIKESLELMQYLPQHTIETYRQQQQQQHQHLLQKQTSIQSPSSYGNSSPPLNKMNSMNKLPSVSQLINPQQRNALTPTTIPDGMGANIPMMGTHMPMAGDMNGLSPTQALPPPLSMPSTSHCTPPPPYPTDCSIVSFLARLGCSSCLDYFTTQGLTTIYQIEHYSMDDLASLKIPEQFRHAIWKGILDHRQLHEFSSPSHLLRTPSSASTVSVGSSETRGERVIDAVRFTLRQTISFPPRDEWNDFNFDMDARRNKQQRIKEEGE
  binding: binds
